Results are given in words; binding and its absence hold for the method and conditions named. Binding seen in cells or lysates may run through a third protein. Some entries that bind do so weakly or less than the wild type.
Assays:
[1] = molecular target: PRMT3 (human (endogenous in SW480 and HEK293T)) (UniProt O60678); assay: co-IP; endogenous proteins, reciprocal co-IP in SW480 and HEK293T cells; IP lysis buffer, 2 mg lysate with antibody overnight at 4 °C, protein A/G agarose beads, western blot
[2] = molecular target: T1, lysine-specific demethylase 4A (KDM4A) (human (endogenous in SW480)) (UniProt O75164); assay: co-IP; endogenous proteins, reciprocal co-IP in SW480 cells with radiation (4 Gy) treatment; IP lysis buffer, antibody overnight at 4 °C, protein A/G agarose beads, western blot
T1 sequence: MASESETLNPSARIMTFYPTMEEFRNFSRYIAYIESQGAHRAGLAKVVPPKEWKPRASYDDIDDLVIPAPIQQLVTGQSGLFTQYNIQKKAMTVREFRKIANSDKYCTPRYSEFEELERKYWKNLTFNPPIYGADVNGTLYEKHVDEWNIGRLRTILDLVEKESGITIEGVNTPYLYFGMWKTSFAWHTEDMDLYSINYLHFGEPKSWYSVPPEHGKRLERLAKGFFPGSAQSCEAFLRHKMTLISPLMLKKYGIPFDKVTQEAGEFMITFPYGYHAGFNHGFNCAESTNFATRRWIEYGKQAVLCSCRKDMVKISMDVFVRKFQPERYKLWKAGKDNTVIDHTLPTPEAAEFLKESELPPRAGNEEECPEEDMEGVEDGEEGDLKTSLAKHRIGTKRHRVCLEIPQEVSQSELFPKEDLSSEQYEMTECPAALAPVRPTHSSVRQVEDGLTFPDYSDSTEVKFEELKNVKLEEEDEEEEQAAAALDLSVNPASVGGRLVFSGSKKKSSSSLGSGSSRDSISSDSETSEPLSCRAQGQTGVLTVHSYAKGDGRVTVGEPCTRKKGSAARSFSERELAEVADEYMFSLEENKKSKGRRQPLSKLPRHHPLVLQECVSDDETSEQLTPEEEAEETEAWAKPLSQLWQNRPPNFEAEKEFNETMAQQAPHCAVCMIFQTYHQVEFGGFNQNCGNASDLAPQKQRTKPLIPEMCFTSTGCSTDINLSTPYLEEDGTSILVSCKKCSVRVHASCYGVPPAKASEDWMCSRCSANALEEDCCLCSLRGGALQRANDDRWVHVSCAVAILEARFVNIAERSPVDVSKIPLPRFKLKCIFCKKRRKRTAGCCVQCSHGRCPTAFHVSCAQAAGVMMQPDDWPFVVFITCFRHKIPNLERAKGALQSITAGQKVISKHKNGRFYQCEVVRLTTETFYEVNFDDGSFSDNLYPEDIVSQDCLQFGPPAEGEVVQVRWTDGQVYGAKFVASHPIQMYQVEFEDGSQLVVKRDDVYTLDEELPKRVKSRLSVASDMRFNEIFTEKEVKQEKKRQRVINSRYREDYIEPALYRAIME

Sequences of proteins named here, by UniProt entry; tags and fusion partners are left off.
UniProt O60678: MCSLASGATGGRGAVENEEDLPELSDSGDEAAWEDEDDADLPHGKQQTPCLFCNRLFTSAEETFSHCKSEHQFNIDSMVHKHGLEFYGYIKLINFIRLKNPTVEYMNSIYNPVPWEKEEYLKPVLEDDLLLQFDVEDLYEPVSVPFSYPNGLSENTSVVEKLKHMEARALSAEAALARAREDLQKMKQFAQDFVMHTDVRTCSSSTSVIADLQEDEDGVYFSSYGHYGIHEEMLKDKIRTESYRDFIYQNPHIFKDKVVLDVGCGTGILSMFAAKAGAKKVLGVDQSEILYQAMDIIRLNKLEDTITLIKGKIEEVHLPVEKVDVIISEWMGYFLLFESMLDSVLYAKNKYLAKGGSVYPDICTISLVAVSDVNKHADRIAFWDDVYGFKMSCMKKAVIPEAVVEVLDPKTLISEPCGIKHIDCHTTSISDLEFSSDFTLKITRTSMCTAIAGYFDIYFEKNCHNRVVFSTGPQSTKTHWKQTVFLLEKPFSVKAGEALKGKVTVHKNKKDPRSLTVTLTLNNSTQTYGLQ
UniProt P67809: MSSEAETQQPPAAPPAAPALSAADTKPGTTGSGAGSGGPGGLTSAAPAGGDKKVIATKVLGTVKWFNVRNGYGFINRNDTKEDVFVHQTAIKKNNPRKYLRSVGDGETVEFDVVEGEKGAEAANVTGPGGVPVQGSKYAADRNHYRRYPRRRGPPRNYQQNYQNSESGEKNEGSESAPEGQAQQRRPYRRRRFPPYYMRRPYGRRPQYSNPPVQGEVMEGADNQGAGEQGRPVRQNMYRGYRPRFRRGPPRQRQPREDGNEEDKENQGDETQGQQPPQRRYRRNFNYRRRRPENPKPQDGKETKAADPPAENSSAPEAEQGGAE
UniProt Q14974: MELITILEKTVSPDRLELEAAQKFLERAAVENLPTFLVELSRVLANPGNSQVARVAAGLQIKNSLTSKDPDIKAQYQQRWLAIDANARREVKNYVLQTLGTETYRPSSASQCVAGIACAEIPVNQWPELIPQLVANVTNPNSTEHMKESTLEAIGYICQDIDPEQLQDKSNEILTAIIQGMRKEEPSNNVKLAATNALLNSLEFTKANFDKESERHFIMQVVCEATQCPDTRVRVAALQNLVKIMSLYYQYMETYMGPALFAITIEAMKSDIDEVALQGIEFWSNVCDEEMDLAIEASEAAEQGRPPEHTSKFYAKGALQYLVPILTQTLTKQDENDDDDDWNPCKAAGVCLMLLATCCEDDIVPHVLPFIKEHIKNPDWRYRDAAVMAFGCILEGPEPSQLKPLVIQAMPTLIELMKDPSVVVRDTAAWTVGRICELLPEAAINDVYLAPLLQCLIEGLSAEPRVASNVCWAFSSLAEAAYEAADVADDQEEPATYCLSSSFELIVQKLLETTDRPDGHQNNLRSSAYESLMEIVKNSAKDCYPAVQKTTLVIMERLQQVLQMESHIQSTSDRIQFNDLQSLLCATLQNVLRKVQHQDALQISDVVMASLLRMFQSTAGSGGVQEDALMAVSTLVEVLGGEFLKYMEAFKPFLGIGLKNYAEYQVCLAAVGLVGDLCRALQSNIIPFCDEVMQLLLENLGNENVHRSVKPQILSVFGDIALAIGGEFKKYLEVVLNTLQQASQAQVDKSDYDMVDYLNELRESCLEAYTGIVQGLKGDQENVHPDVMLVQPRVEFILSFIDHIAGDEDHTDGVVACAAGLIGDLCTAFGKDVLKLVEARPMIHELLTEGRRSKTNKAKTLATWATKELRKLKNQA
UniProt P52294: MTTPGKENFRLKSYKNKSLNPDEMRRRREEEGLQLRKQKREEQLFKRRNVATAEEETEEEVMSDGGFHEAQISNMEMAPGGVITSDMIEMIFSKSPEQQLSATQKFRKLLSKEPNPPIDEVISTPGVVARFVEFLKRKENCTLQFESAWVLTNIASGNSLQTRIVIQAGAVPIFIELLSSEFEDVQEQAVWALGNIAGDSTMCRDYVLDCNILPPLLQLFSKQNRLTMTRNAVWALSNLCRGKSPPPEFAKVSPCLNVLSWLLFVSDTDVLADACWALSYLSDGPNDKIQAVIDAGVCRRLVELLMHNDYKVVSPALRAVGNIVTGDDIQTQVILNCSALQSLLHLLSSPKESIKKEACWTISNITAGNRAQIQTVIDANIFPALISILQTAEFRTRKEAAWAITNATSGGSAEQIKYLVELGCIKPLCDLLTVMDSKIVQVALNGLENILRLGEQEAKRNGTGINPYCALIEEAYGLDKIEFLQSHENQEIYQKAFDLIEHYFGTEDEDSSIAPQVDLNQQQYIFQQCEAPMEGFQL

[3] = molecular target: Y-box binding protein 1 (YBX1) (human (endogenous in SW480 and HEK293T)) (UniProt P67809); assay: co-IP; co-IP of YBX1 with importins in control, PRMT3-KO and PRMT3-OE cells; IP lysis buffer, antibody overnight at 4 °C, protein A/G agarose beads, western blot
[4] = molecular target: Y-box binding protein 1 (YBX1) (human (endogenous in SW480 and HEK293T)) (UniProt P67809); assay: co-IP; endogenous proteins, reciprocal co-IP in SW480 cells with radiation (4 Gy) treatment; IP lysis buffer, antibody overnight at 4 °C, protein A/G agarose beads, western blot

Question: With “Y-box binding protein 1 (YBX1) (from UniProt P67809 1-324)” as the molecule, how does the binding [1] read?
Answer: binds

Question: And the binding [2]?
Answer: binds

Question: With importin β (from UniProt Q14974 1-876) as the molecule, how does the binding [3] read?
Answer: binds

Question: Which binding [3] does the source give for importin α5 (from UniProt P52294 1-538) here?
Answer: binds

B1: lysine-specific demethylase 4A (KDM4A) (enzyme, UniProt O75164 1-1064)
chain: MASESETLNPSARIMTFYPTMEEFRNFSRYIAYIESQGAHRAGLAKVVPPKEWKPRASYDDIDDLVIPAPIQQLVTGQSGLFTQYNIQKKAMTVREFRKIANSDKYCTPRYSEFEELERKYWKNLTFNPPIYGADVNGTLYEKHVDEWNIGRLRTILDLVEKESGITIEGVNTPYLYFGMWKTSFAWHTEDMDLYSINYLHFGEPKSWYSVPPEHGKRLERLAKGFFPGSAQSCEAFLRHKMTLISPLMLKKYGIPFDKVTQEAGEFMITFPYGYHAGFNHGFNCAESTNFATRRWIEYGKQAVLCSCRKDMVKISMDVFVRKFQPERYKLWKAGKDNTVIDHTLPTPEAAEFLKESELPPRAGNEEECPEEDMEGVEDGEEGDLKTSLAKHRIGTKRHRVCLEIPQEVSQSELFPKEDLSSEQYEMTECPAALAPVRPTHSSVRQVEDGLTFPDYSDSTEVKFEELKNVKLEEEDEEEEQAAAALDLSVNPASVGGRLVFSGSKKKSSSSLGSGSSRDSISSDSETSEPLSCRAQGQTGVLTVHSYAKGDGRVTVGEPCTRKKGSAARSFSERELAEVADEYMFSLEENKKSKGRRQPLSKLPRHHPLVLQECVSDDETSEQLTPEEEAEETEAWAKPLSQLWQNRPPNFEAEKEFNETMAQQAPHCAVCMIFQTYHQVEFGGFNQNCGNASDLAPQKQRTKPLIPEMCFTSTGCSTDINLSTPYLEEDGTSILVSCKKCSVRVHASCYGVPPAKASEDWMCSRCSANALEEDCCLCSLRGGALQRANDDRWVHVSCAVAILEARFVNIAERSPVDVSKIPLPRFKLKCIFCKKRRKRTAGCCVQCSHGRCPTAFHVSCAQAAGVMMQPDDWPFVVFITCFRHKIPNLERAKGALQSITAGQKVISKHKNGRFYQCEVVRLTTETFYEVNFDDGSFSDNLYPEDIVSQDCLQFGPPAEGEVVQVRWTDGQVYGAKFVASHPIQMYQVEFEDGSQLVVKRDDVYTLDEELPKRVKSRLSVASDMRFNEIFTEKEVKQEKKRQRVINSRYREDYIEPALYRAIME
Question: How did the binding [4] turn out when B1 was run?
Answer: binds

Source: paper PMC12697906
